The other results are listed elsewhere or left out. The main result of the screen is listed elsewhere. These columns were measured beside it and carry no call. The list favours compounds with an active or inconclusive main result. Potencies come from curve fits of mixed quality, noted in brackets.
Experiment: qHTS Assay for Lipid Storage Modulators in Drosophila S3 Cells;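 as to cell number change: cells counted by Cell Tracker Red CMTPX staining in the red channel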
Settings: BODIPY lipid droplet fluorescence, 18-24 h; for cell number change: measured here: cell count max response, cells fed with added oleic acid
Procedure, shortened: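 Drosophila S3 cells got compounds at several concentrations plus oleic acid (400 uM solution). Laser-scanning cytometry with 488 nm excitation read lipid droplets at 500-530 nm and cells at 575-640 nm. Percent activity was relative to 20 uM Triacsin C.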

[1] = measured here: lipid fluorescence (Fed channel) AC50, cells fed with added oleic acid
[2] = measured here: cell number channel AC50, cells fed with added oleic acid

Compound	cell number change	AC50 [1]	AC50 [2]
COc1cc(/C=C2\SC(=O)N(c3ccccc3Cl)C2=O)cc([N+](=O)[O-])c1O	-19%	29.1 µM [falling, single point]	–
O=C(CN1C(=O)NC2(CCCC2)C1=O)N1CCN(S(=O)(=O)c2ccccc2Br)CC1	-7.18%	–	–
COc1ccc([N+](=O)[O-])cc1-n1cccc1	14.4%	18.4 µM [rising, single point]	–
CCCN(CCC)Cc1c(C(=O)N/N=C/CCc2ccccc2)nnn1-c1nonc1N	34.2%	0.731 µM [falling, partial curve]	8.2 µM [rising, partial curve, poor fit]
O=C(N/C(=C/c1ccc(Cl)cc1)c1nc2ccccc2[nH]1)c1ccco1	-31.4%	13 µM [falling, partial curve, poor fit]	16.4 µM [falling, single point]
O=C(Cc1c(Cl)cccc1Cl)OCc1ccccn1	9.58%	–	–
O=C(CC1C(=O)NCCN1Cc1cccc(C(F)(F)F)c1)NC1CCCCCC1 (stereo not given)	–	2.06 µM [falling, partial curve]	–
Cc1cc(NC(=O)CSc2nccn2C)n(-c2ccccc2)n1	6.32%	0.116 µM [falling, full curve, poor fit]	–
CC(=O)COC(=O)C1CCN(S(=O)(=O)c2cc([N+](=O)[O-])ccc2Cl)CC1	-6.33%	0.00461 µM [falling, full curve]	–
CCCN1C2CCCC1CC(NC(=O)c1cc(OC)cc(OC)c1)C2 (stereo not given)	11.4%	–	–
Cc1ccc(C(=O)O/N=C2/CC3CCC2(C)[C@@]3(C)CBr)cc1 (stereo not given in full)	-21.8%	3.66 µM [falling, full curve, poor fit]	–
CC(C)CNC(=O)COC(=O)c1c2c(nc3ccccc13)CCC2	–	29.1 µM [falling, single point]	–
CCN(CC)Cc1c(O)c(Cl)cc2c(C)c(C)c(=O)oc12	-0.925%	3.66 µM [falling, single point]	–
Cc1ccc(N=Nc2[nH]c3ccccc3c2O)cc1	-6.58%	8.2 µM [falling, partial curve]	–
COc1ccc(-c2[nH]ncc2/C=C(/C#N)C(=O)NC2CCCCC2)cc1	-11.3%	9.2 µM [rising, partial curve, poor fit]	–
Nc1cc(=O)[nH]c(SCc2nc3ccccc3n2Cc2ccccc2)n1	-12.5%	–	–
Cc1cc(C(=O)CSc2nc3ccccc3n2CCC#N)c(C)n1Cc1cccs1	-20.8%	0.461 µM [rising, partial curve]	–
Cc1cc(C)nc(Nc2nc3ccccc3o2)n1	-9.61%	0.13 µM [falling, full curve, poor fit]	0.164 µM [falling, full curve, poor fit]
Cc1c(C(=O)N(C)c2ccccc2)oc2c1C(O)CC(C)(C)C2 (stereo not given)	–	0.116 µM [rising, full curve, poor fit]	–
CCOC(=O)C1CCN(CC(=O)c2c(C)[nH]c3cc(C)ccc23)CC1	7.97%	2.59 µM [rising, partial curve]	–
CCN(CC(=O)Nc1ccc2c(c1)OCO2)Cc1nc2ccccc2c(=O)[nH]1	-4.47%	0.13 µM [rising, full curve, poor fit]	–

Compound	cell number change	AC50 [1]	AC50 [2]
O=C(Nc1ccc2nc(-c3ccc(Br)o3)[nH]c2c1)c1ccco1	30.5%	23.1 µM [rising, single point]	29.1 µM [rising, single point]
CC(=O)N1CCc2c(sc(NC(=O)C3CC3)c2-c2nc3ccccc3s2)C1	–	5.8 µM [rising, single point]	0.259 µM [rising, full curve, poor fit]
CC(=O)Nc1ccc(N2C(=O)CC(N3CC(C)OC(C)C3)C2=O)cc1 (stereo not given)	-1.23%	2.91 µM [rising, single point]	–
COc1ccc(CCN2C(=O)C(Oc3ccccc3)C2c2ccc3c(c2)OCO3)cc1 (stereo not given)	15.5%	1.84 µM [rising, partial curve, poor fit]	–
O=C(COc1cc2oc(=O)c3c(c2cc1Cl)CCC3)N1C[C@H]2C[C@@H](C1)c1cccc(=O)n1C2	-12.9%	32.6 µM [falling, partial curve, poor fit]	–
O=C(O)c1ccc(S(=O)(=O)N2CCN(c3ccccn3)CC2)cc1	12.4%	–	–
N#C/C(=C/c1cccn1-c1cccc(C(=O)O)c1)c1ccc(Cl)cc1	-24.6%	16.4 µM [falling, single point]	–
Cc1cc(OCCN2CCCC2)ccc1[N+](=O)[O-]	90.2%	29.1 µM [rising, single point]	29.1 µM [rising, single point]
C=C1C(=O)O[C@@H]2[C@H]1CC[C@H](C)[C@]1(O)CCC(=O)[C@@]21C	-23.4%	10.3 µM [falling, partial curve]	–
O=C(NCCc1cn2ccccc2n1)c1cc(COc2ccc3ncccc3c2)on1	-43.3%	–	29.1 µM [falling, single point]
COc1ccc(NC(=O)COC(=O)C2CC(=O)N(c3ccc(OC(C)C)cc3)C2)cc1 (stereo not given)	50%	0.1 µM [falling, full curve, poor fit]	–
COC(=O)c1nc(-c2ccccc2)n[nH]1	-0.17%	25.9 µM [falling, partial curve]	0.0517 µM [falling, full curve, poor fit]
Cc1oc(-c2ccccc2F)nc1CS(=O)CC(=O)NC1CC1 (stereo not given)	–	0.58 µM [rising, single point]	–
Cc1cc(NC(=O)CSCC(=O)Nc2nc3ccc(F)cc3s2)no1	–	9.2 µM [falling, partial curve]	–
COC(=O)c1cc(-c2cccc([N+](=O)[O-])c2)c2c(=O)n(C)c(=O)n(C)c2n1	34%	20.6 µM [rising, single point]	18.4 µM [rising, single point]
COc1cc(-c2n[nH]c(=O)o2)cc(OC)c1OC	23.3%	9.2 µM [rising, partial curve]	–
COc1cccc(-c2nc(-c3cccs3)no2)c1	–	29.1 µM [rising, single point]	–
O=C(N/N=C/c1ccc(O)c(O)c1)c1cccc(S(=O)(=O)N2CCCCC2)c1	-3.55%	–	–
O=C(CCc1ccccc1)NC1CCSC1=O (stereo not given)	18.7%	0.00461 µM [falling, full curve, poor fit]	–
COc1cc(/C=C2\SC(=O)N(Cc3ccc(F)cc3)C2=O)cc([N+](=O)[O-])c1O	11.7%	–	–
O=C(CNC(=O)c1ccc(Cl)cc1)NC1CCCCC1	18.8%	29.1 µM [rising, single point]	–

Compound	cell number change	AC50 [1]	AC50 [2]
N#Cc1ccc(OCC(=O)N/N=C2\CCc3ccccc32)cc1	101%	3.26 µM [rising, partial curve]	5.17 µM [rising, partial curve]
Oc1ccc(O)c(Cc2nc3ccccc3s2)c1	63.8%	–	29.1 µM [rising, single point]
Cc1ccccc1N1CC(C(=O)Nc2nnc(SCc3cccnc3)s2)CC1=O (stereo not given)	14.1%	5.62 µM [rising, single point]	–
COc1ccc(Cl)cc1NS(=O)(=O)c1c(C)nc2sccn2c1=O	2.4%	29.1 µM [rising, single point]	–
CNc1nc(N/N=C/c2cc3c(cc2[N+](=O)[O-])OCO3)nc(Nc2ccccc2)n1	-62.1%	18.4 µM [falling, single point]	20.6 µM [falling, single point]
COc1cccc(C(=O)N2CCSC2=S)c1	-12.7%	0.103 µM [falling, full curve, poor fit]	–
COc1cc(OC)cc(C(=O)N2CCC(N3CCN(c4ccccc4)CC3)CC2)c1	-6.2%	7.31 µM [rising, partial curve]	–
COc1ccc(-c2nnc(SCC(=O)N3CCCCC3)o2)cc1	-8.97%	–	–
COc1ccc(CN2C3CCC2CC(NC(=O)c2cccc(F)c2)C3)cc1 (stereo not given)	-10.8%	6.51 µM [rising, single point]	–
C/C(=N\NC(=O)Cn1nnc2ccccc21)c1ccco1	10%	0.13 µM [falling, full curve, poor fit]	–
CCCCn1c(CCc2ccccc2)nc2cc3[nH]c(=O)c(C(C)C)nc3cc21	-17.8%	5.8 µM [falling, single point]	–
CCOC(=O)c1oc2ccccc2c1NC(=O)c1ccc2c(c1)OCO2	4.18%	–	–
O=S(=O)(NCc1ccco1)N1CCCCCC1	-72.6%	–	32.6 µM [falling, single point]
COCCN=c1scc(-c2cc(OC)ccc2OC)n1/N=C/c1c[nH]c2ccccc12	-27.2%	29.1 µM [falling, single point]	–
CCNC(=O)N(C)c1nncnc1C(=O)NC	-12.9%	–	–
COc1cccc(N2C(=O)N(c3ccccc3)C3CS(=O)(=O)CC32)c1 (stereo not given)	-7.74%	0.184 µM [falling, full curve, poor fit]	–
Cc1ccc2nc(-c3ccc(SCC(=O)N4CCc5ccccc54)nc3)[nH]c2c1	-90.2%	29.1 µM [falling, single point]	18.4 µM [falling, partial curve]
C=CCc1c(C)c(C#N)c2nc3ccccc3n2c1NCCN(C)C	18.8%	2.31 µM [rising, single point]	–
CC(C)(C)C(=O)N1CCN(c2c(Cl)cccc2[N+](=O)[O-])CC1	–	0.461 µM [rising, single point]	–

Of the compounds above, these contain a COOH group:
Compound	cell number change	AC50 [1]	AC50 [2]
O=C(O)c1ccc(S(=O)(=O)N2CCN(c3ccccn3)CC2)cc1	12.4%	–	–
N#C/C(=C/c1cccn1-c1cccc(C(=O)O)c1)c1ccc(Cl)cc1	-24.6%	16.4 µM [falling, single point]	–

Just cell number change and AC50 [1], for two of the compounds above:
Compound | cell number change | AC50 [1]
COc1ccc(-c2nnc(SCC(=O)N3CCCCC3)o2)cc1 | -8.97% | –
COc1ccc(CN2C3CCC2CC(NC(=O)c2cccc(F)c2)C3)cc1 (stereo not given) | -10.8% | 6.51 µM [rising, single point]

From PubChem BioAssay AID2685 (National Center for Advancing Translational Sciences (NCATS), 2010)
